From publication doi:10.1101/2021.12.20.473554 come the findings set out here.

Sequences of proteins named here, by UniProt entry; tags and fusion partners are left off. A change or cut given only in a name is not applied to a line headed by its entry.
UniProt P31749, whole entry, stated change not applied: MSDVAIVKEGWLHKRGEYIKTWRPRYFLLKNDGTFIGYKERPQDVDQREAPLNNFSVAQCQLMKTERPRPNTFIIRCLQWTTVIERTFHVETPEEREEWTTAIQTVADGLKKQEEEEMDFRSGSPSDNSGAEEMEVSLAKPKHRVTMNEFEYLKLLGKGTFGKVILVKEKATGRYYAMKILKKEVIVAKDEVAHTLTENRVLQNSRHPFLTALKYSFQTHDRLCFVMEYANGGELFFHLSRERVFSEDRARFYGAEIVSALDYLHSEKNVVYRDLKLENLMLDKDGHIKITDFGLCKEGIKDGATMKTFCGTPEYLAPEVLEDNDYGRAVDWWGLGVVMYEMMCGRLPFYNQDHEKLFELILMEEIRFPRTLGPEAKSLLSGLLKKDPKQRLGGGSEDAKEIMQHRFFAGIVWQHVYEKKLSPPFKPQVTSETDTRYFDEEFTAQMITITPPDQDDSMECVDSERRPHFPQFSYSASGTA

Results are given in words; binding and its absence hold for the method and conditions named. In cells and extracts the contact can be indirect.

The target of the experiment is HA-Akt1 (pcDNA3-HA-Akt1) (UniProt P31749). Briefly: co-IP.

Regarding “Flag-TSC22D4-ΔD2 (from UniProt Q9EQN3) (domain or fragment)”, the binding entry is on record as “no binding”.
“Flag-TSC22D4-ΔTSC (from UniProt Q9EQN3) (domain or fragment)”: the binding result is recorded as “no binding”.
